Assay results from US20260201068A1 (UNIVERSIT DE GEN VE, published 2026).
No constants are given. Whether binding was seen depends on the method and setting. Some entries that bind do so weakly or less than the wild type. Sequences can lack the tags named with a protein.

By UniProt entry, the sequences of proteins in these tests, tags left out. Residues count along the entry.
UniProt P23471, residues 25-413: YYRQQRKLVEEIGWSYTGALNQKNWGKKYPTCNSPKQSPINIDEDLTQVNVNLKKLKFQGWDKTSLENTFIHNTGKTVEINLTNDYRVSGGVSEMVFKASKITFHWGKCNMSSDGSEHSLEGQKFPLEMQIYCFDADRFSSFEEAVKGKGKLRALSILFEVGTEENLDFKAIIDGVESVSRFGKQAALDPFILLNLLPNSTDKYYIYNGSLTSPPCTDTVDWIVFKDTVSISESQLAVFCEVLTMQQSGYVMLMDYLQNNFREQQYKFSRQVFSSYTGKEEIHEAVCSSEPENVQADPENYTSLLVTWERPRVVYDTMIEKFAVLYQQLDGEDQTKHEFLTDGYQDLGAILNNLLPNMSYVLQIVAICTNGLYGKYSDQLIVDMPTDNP

Target: human PTPRZ1 extracellular portion (domains 1 plus 2) knocked in and shown on Ge518_PTPRZ1-KI cells (human) (UniProt P23471)
Assay: flow cytometry on Ge518_PTPRZ1-KI cells, scFv conjugated to rabbit Fc, anti-rabbit IgG AlexaFluo488

B1: anti-PTPRZ1 scFv RRB471 conjugated to a rabbit Fc (Fc fusion)
scFv: MAEVQLVESGGGLVQPGGSLRLSCAASGFTFSSYSMNWVRQAPGKGLEWVSYISSSSSTIYYADSVKGRFTISRDNAKNSLYLQMNSLRAEDTAVYYCARPGYGDFPGAFDIWGQGTLVTVSSGGGGSGGGGSGGGGSTQSALTQPASVSGSPGQSITISCTGTSSDVGGYNYVSWYQQHPGKAPKLMIYEVSNRPSGVSNRFSGSKSGNTASLTISGLQAEDEADYYCSSYDWATYGSVFGGGTKLTVLGAA
notes: scFv conjugated to a rabbit Fc for flow cytometry; not shown: rabbit Fc
Question: For B1, which binding is on record?
Answer: binds
